{
  "source": "PubChem BioAssay AID493014",
  "about": "(National Center for Advancing Translational Sciences (NCATS), 2011)",
  "note": "In all, about 340,000 compounds went through this assay and about 170 (0.05%) were called active. This list was built around the results that the source calls inconclusive (neither active nor inactive); the mix of calls is not that of the screen. Calls come from the whole dose curve; as a rule, active = well fitted inhibition curve with a large enough effect in the signal ratio, with a control signal flat (not every such curve was filed as active); inconclusive = small, poorly fitted or top-dose-only effect, or effect the other way, or a change in a side signal; inactive = flat fitted curve, though single readings scatter; the % refers to the signal ratio. Potencies beside an inconclusive call are fits to weak or partial responses and may not hold up. Potency is the fitted concentration of half-maximal effect.",
  "data": [
    {"assay": "qHTS Assay to Find Inhibitors of Chronic Active B-Cell Receptor Signaling;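 for activity change, negative = inhibition: plate controls were basal doxycycline-induced cells for no effect and cells given 10 µM MG132 for full effect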", "conditions": "ABC-DLBCL IkBa-CBG/CBR reporter, luminescence ratio (green luciferase fused to IkBa over red control in TMD8 lymphoma cells), 4 h; activity change, negative = inhibition: at 46.1 µM (top of the series) unless noted", "summary_of_the_method": "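Cell line TMD8 (human ABC DLBCL), stably expressing tet-inducible CBG68-IkBa fusion and CBR; IMDM/0.5% FBS; cpd up to 46 uM; dox induction, 4 h, 37C/5% CO2; dual luminescence; green/red ratio; MG132 control.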", "values": [
      {"compound": "COc1ccc(CCNC(=O)c2ccn[nH]2)cc1OC", "activity change, negative = inhibition": "inconclusive: -12.7%"},
      {"compound": "Cc1cc(C(=O)COC(=O)c2n[nH]c(=O)c3ccccc23)c(C)n1C", "activity change, negative = inhibition": "inconclusive: 1.95%"},
      {"compound": "Cc1cc(N2CCOCC2)nc2ccc(NC(=S)NCc3ccc4c(c3)OCO4)cc12", "Potency": "inconclusive: 22.4 µM [falling, partial curve, poor fit]"},
      {"compound": "Cc1cc(C)n(C(C[N+](=O)[O-])c2ccc(Cl)cc2)n1", "note": "(stereo not drawn)", "Potency": "inconclusive: 29.1 µM [rising, partial curve, poor fit]"},
      {"compound": "CC1=NN(c2cccc(C(=O)O)c2)C(=O)/C1=C\\C=C/c1ccccc1", "Potency": "inconclusive: 3.55 µM [falling, partial curve, poor fit]"},
      {"compound": "O=C(N/N=C/c1cc([N+](=O)[O-])ccc1O)C1C2CCCCC21", "note": "(stereo not drawn)", "activity change, negative = inhibition": "inconclusive: 3.28%"},
      {"compound": "CCNC(=S)N/N=C/c1ccc(C(=O)O)cc1", "activity change, negative = inhibition": "inconclusive: -22.7%"},
      {"compound": "Cc1ccc(-n2ncc3c(N4CCN(Cc5ccccc5)CC4)ncnc32)cc1C", "activity change, negative = inhibition": "inconclusive: 5.76%"},
      {"compound": "CCCCn1c(N)c(N(CCC(C)C)C(=O)c2ccc(COc3ccccc3)o2)c(=O)[nH]c1=O", "Potency": "inconclusive: 14.6 µM [rising, partial curve, poor fit]"},
      {"compound": "COc1cc2c(cc1OC)CN(C(=O)c1cccc(S(=O)(=O)N3CCc4ccccc43)c1)CC2", "activity change, negative = inhibition": "inactive"},
      {"compound": "Cc1nc(NC(=O)c2ccco2)sc1-c1csc(Nc2ccc(Cl)cc2Cl)n1", "activity change, negative = inhibition": "inactive"},
      {"compound": "O=c1c2c(nc3cc(-c4ccc(Br)cc4)[nH]n13)CCCC2", "activity change, negative = inhibition": "inactive"},
      {"compound": "COc1cc2c(cc1OC)CN(c1ccc([N+](=O)[O-])cc1Cl)CC2", "activity change, negative = inhibition": "inconclusive: 0.0986%"},
      {"compound": "O=C(N/C(=C/c1ccc(Br)cc1)C(=O)N1CCCC1)c1ccccc1F", "activity change, negative = inhibition": "inconclusive: -2.76%"},
      {"compound": "CCSc1nc2c(sc3ccccc32)c(=O)n1C(C)C", "Potency": "inconclusive: 2.91 µM [rising, full curve]"},
      {"compound": "O=C1/C(=C/c2ccccn2)SC(=S)N1NS(=O)(=O)c1ccccc1", "Potency": "inconclusive: 11.2 µM [rising, partial curve, poor fit]"},
      {"compound": "COC(=O)c1ccc(S(=O)(=O)NCCSc2nnc3c4ccccc4n(C)c3n2)cc1", "activity change, negative = inhibition": "inactive"},
      {"compound": "COc1cc2c(cc1NC(=O)c1cc(-c3ccncc3)nc3ccc(C)cc13)oc1ccccc12", "activity change, negative = inhibition": "inconclusive: 2.3%"},
      {"compound": "CCOCCCNC(=O)CCC(=O)NNc1nc2ccccc2c2nc(C)nn12", "activity change, negative = inhibition": "inconclusive: -1.18%"},
      {"compound": "Cc1ccc(C(=O)N/N=C/c2c[nH]c3ccccc23)o1", "Potency": "inconclusive: 22.4 µM [falling, partial curve]"},
      {"compound": "CCOc1ccc(S(=O)(=O)NCCC(=O)NCC(c2cccs2)N2CCOCC2)cc1", "note": "(stereo not drawn)", "activity change, negative = inhibition": "inactive"},
      {"compound": "O=C(CN1C(=O)NC2(CCc3ccccc32)C1=O)Nc1ccccc1C(F)(F)F", "note": "(stereo not drawn)", "activity change, negative = inhibition": "inconclusive: -5.36%"},
      {"compound": "CCOc1ccccc1NC(=O)c1ccccc1-c1nc(-c2ccccc2)no1", "activity change, negative = inhibition": "inactive"},
      {"compound": "Cn1c(CC(=O)Nc2ccccc2)nnc1SCC(=O)Nc1ccc(N2CCOCC2)cc1", "Potency": "inconclusive: 15.8 µM [falling, partial curve]"},
      {"compound": "CCCCN=C1NN=C(c2ccc(C)c(C)c2)CS1", "Potency": "inconclusive: 12.6 µM [falling, partial curve, poor fit]"},
      {"compound": "CC(C)(C)NC(=O)CN(C(=O)CS(=O)CC(=O)Nc1ccc(F)cc1)c1ccc2c(c1)OCCO2", "note": "(stereo not drawn)", "activity change, negative = inhibition": "inconclusive: 14%"},
      {"compound": "COc1cccc(Nc2nc(-c3ccc(O)cc3)cs2)c1", "Potency": "inconclusive: 11.2 µM [falling, partial curve, poor fit]"},
      {"compound": "CCCCCCCC(=O)C(C)C(=O)N(C)[C@H](Cc1ccc(OC)cc1)C(=O)N(C)[C@H](C(N)=O)C(C)C", "note": "(stereo partly drawn)", "activity change, negative = inhibition": "inactive"},
      {"compound": "CC(C)CN(C(=O)C(c1ccccc1)c1ccccc1)c1c(N)n(CC(C)C)c(=O)[nH]c1=O", "activity change, negative = inhibition": "inconclusive: -16.9%"},
      {"compound": "CC(=O)c1cc2c(cc1NC(=O)c1ccco1)OCCO2", "activity change, negative = inhibition": "inconclusive: 2.7%"},
      {"compound": "COc1ccc(-n2cnc3cc(C(=O)NCCC4=CCCCC4)ccc32)cc1", "activity change, negative = inhibition": "inconclusive: 12.9%"},
      {"compound": "CCOc1cc(C2NC(=O)NC(C)=C2C(=O)OC(C)CC)cc(Br)c1O", "note": "(stereo not drawn)", "activity change, negative = inhibition": "inconclusive: -1.78%"},
      {"compound": "COc1cc(/C=C/[N+](=O)[O-])ccc1OC(=O)c1cc2ccccc2oc1=O", "activity change, negative = inhibition": "inactive"},
      {"compound": "Cc1nn(CCO)c(C)c1Oc1ccccc1O", "activity change, negative = inhibition": "inactive"},
      {"compound": "CC(C)n1ncc2c(C(=O)N3CCN(Cc4ccc(Br)s4)CC3)cc(C3CC3)nc21", "activity change, negative = inhibition": "inactive"},
      {"compound": "Cc1ccc(S(=O)(=O)N(C)C)cc1NC(=O)COC(=O)c1c(C)noc1C", "Potency": "inconclusive: 14.6 µM [falling, partial curve]"},
      {"compound": "Nc1ncnc2c1ncn2[C@@H]1O[C@H](CNC(=O)[C@@H]2CCN2)[C@@H](O)[C@H]1O", "activity change, negative = inhibition": "inconclusive: -2.42%"},
      {"compound": "CC(=O)N1c2ccc(S(=O)(=O)N3CCCC3C(=O)NCc3ccccc3Cl)cc2CC1C", "note": "(stereo not drawn)", "activity change, negative = inhibition": "inactive"},
      {"compound": "C=CCOc1ccc(C2=NOC(C(=O)Nc3ccc4c(c3)OCCO4)C2)cc1OC", "note": "(stereo not drawn)", "activity change, negative = inhibition": "inconclusive: -9.47%"},
      {"compound": "CC(C)CCOCC(=O)Nc1cccc(C(=O)O)c1", "Potency": "inconclusive: 4.47 µM [falling, partial curve]"},
      {"compound": "Cc1cc2nc(C)n(CCCNC(=O)Nc3ccccc3)c2cc1C", "activity change, negative = inhibition": "inconclusive: 3%"},
      {"compound": "COc1ccc(NC(=O)c2ccc(Cl)c(NC(=O)c3ccncc3)c2)cc1", "Potency": "inconclusive: 28.2 µM [falling, single point]"},
      {"compound": "COc1ccccc1CC(=O)O/N=C(\\N)c1ccccn1", "activity change, negative = inhibition": "inconclusive: 0.733%"},
      {"compound": "BrC(=C\\c1ccccc1)/C=N/Nc1nc(N2CCOCC2)nc(N2CCOCC2)n1", "activity change, negative = inhibition": "inactive"},
      {"compound": "COC(=O)c1ccc(NC(=O)CNC(=O)C2CCCCC2)cc1", "activity change, negative = inhibition": "inactive"},
      {"compound": "CCOC(=O)c1c[nH]c2c(C(F)(F)F)cccc2c1=O", "activity change, negative = inhibition": "inactive"},
      {"compound": "CCOC(=O)c1ccc(NC(=O)c2cc(F)c(F)cc2Cl)cc1", "activity change, negative = inhibition": "inconclusive: 4.29%"},
      {"compound": "O=C(N/N=C1\\CCCc2ccccc21)c1ccccc1[N+](=O)[O-]", "Potency": "inconclusive: 6.51 µM [falling, partial curve]"},
      {"compound": "COc1ccc(N2CCN(C(=O)c3ccc(CS(=O)c4cccc(C)c4)o3)CC2)cc1", "note": "(stereo not drawn)", "activity change, negative = inhibition": "inactive"},
      {"compound": "Cc1ccc(N(CC(=O)NCc2ccco2)C(=O)CCC(=O)Nc2ccccn2)c(C)c1", "activity change, negative = inhibition": "inconclusive: -15.6%"},
      {"compound": "O=c1[nH]n2c(=O)c3c([nH]c2c1N=Nc1ccccc1)CCC3", "activity change, negative = inhibition": "inconclusive: -6.06%"},
      {"compound": "O=C(c1ccco1)N1CCN(C(=O)c2cc3c(s2)-c2ccccc2OC3)CC1", "activity change, negative = inhibition": "inconclusive: -10.9%"},
      {"compound": "COc1ccc(CN2CCN(C(=O)CC(C)C)CC2)cc1Br", "Potency": "inconclusive: 35.5 µM [falling, single point]"},
      {"compound": "COc1ccc(/C=C2/SC(=O)N(CCC(=O)Nc3ccccc3C(=O)O)C2=S)cc1", "Potency": "inconclusive: 2.82 µM [falling, partial curve]"},
      {"compound": "Cn1cccc1Cc1nnc(SCC(=O)NCc2ccc3c(c2)OCO3)n1CCc1ccccc1", "activity change, negative = inhibition": "inconclusive: -0.551%"},
      {"compound": "CCCN(CCC)C(=O)CSc1nc2ccccc2c(=O)n1C1CCCC1", "activity change, negative = inhibition": "inconclusive: -13.8%"},
      {"compound": "C/C(=N\\NC(=O)c1cccc(N/N=C(\\C)c2ccccc2)c1)c1ccccc1", "Potency": "inconclusive: 6.51 µM [falling, single point]"},
      {"compound": "CC(=O)Nc1ccc(NC(=O)CSc2nc3ccccc3c(=O)n2CCCN2CCOCC2)cc1", "activity change, negative = inhibition": "inconclusive: 1.63%"},
      {"compound": "COc1ccc(C(=O)N/N=C/c2c[nH]c3ccccc23)cc1", "activity change, negative = inhibition": "inactive"},
      {"compound": "Cc1cccc(CSc2nc3c(c(=O)n2C)SCC3)c1", "activity change, negative = inhibition": "inconclusive: 12.1%"},
      {"compound": "COCCNC(=O)/C(C#N)=C/c1c(N2CCN(c3ccccc3)CC2)nc2ccccn2c1=O", "activity change, negative = inhibition": "inactive"},
      {"compound": "O=C(COC(=O)c1cnccn1)Nc1ccc2c(c1)OCO2", "activity change, negative = inhibition": "inconclusive: 3.99%"},
      {"compound": "Cc1nn(CC(=O)Nc2nnc(C(C)C)s2)c(=O)c2ccccc12", "activity change, negative = inhibition": "inconclusive: 4.88%"},
      {"compound": "Cc1ccc(C2CC(=O)c3cnc(N4CCN(c5ccccc5)CC4)nc3C2)cc1", "note": "(stereo not drawn)", "activity change, negative = inhibition": "inactive"},
      {"compound": "CC(C)c1ccc(NC(=O)c2cccnc2)cc1", "activity change, negative = inhibition": "inactive"},
      {"compound": "COCCN=C1NN=C(c2ccc(C)c([N+](=O)[O-])c2)CS1", "activity change, negative = inhibition": "inactive"},
      {"compound": "Cc1ccc(-n2c(C)cc(/C=C(\\C#N)C(=O)NCC3CCCO3)c2C)cc1", "note": "(stereo not drawn)", "activity change, negative = inhibition": "inconclusive: -4.68%"},
      {"compound": "c1ccc(-c2nc(NCc3ccco3)c3ccccc3n2)nc1", "activity change, negative = inhibition": "inconclusive: -8.64%"},
      {"compound": "N=C1C(c2nc3ccccc3[nH]2)=C(O)CN1c1ccccc1", "Potency": "inconclusive: 29.1 µM [falling, single point]"},
      {"compound": "COc1ccc(C(=O)O/N=C(/c2ccccc2)c2ccncc2)cc1", "Potency": "inconclusive: 22.4 µM [cytotoxic, partial curve]"},
      {"compound": "CCOc1ccc2nc(NCCCNS(=O)(=O)c3ccc(C)cc3)c(C#N)cc2c1", "activity change, negative = inhibition": "inconclusive: 5.82%"},
      {"compound": "CC1CCCN(S(=O)(=O)c2ccc3c(c2)C(C)(C)C(=O)N3C)C1", "note": "(stereo not drawn)", "activity change, negative = inhibition": "inconclusive: 5.89%"},
      {"compound": "Cc1cc2nc(-c3ccc[nH]c3=O)n(Cc3ccc(F)cc3)c2cc1C", "activity change, negative = inhibition": "inconclusive: 11.3%"},
      {"compound": "COc1cccc(CNC(=O)c2ccc(C3SCCS3)cc2)c1", "Potency": "inconclusive: 10 µM [falling, partial curve, poor fit]"},
      {"compound": "Cc1cccc(-c2nnc(-c3ccc(N)cc3)o2)c1", "Potency": "inconclusive: 29.1 µM [falling, partial curve, poor fit]"},
      {"compound": "Cc1ccc2nc(NC(=O)C3CCCN(S(=O)(=O)c4cccc5nonc45)C3)sc2c1", "note": "(stereo not drawn)", "Potency": "inconclusive: 1 µM [falling, partial curve, poor fit]"},
      {"compound": "Fc1cccc(F)c1CSc1nc2ccccc2[nH]1", "activity change, negative = inhibition": "inactive"},
      {"compound": "O=C1C=C(c2ccc(O)cc2)C[C@@H](c2ccc(Cl)cc2)C1", "activity change, negative = inhibition": "inconclusive: -0.467%"}
    ]}
  ]
}
